# Test results published in US12019083B2, “Compound distribution in microfluidic devices” (EMULATE, Inc., priority 2019, dated 2024).
# Test: Time-dependent material absorption test in vials, PDMS
# Assay type: physicochemical
# Details: recovered concentration compared to dosing concentration
smiles,measurement,value
CN1C(=O)CN=C(c2ccccc2)c2cc(Cl)ccc21 [Diazepam],absorption into PDMS,absorb into PDMS
